# Laboratory results published in PubChem BioAssay (EPA / NIEHS).
# The chains behind the UniProt entries cited, without tags or fusion partners. Where a name states a change or a piece, a line headed by the entry shows the natural chain unless it says otherwise.
# UniProt O75469: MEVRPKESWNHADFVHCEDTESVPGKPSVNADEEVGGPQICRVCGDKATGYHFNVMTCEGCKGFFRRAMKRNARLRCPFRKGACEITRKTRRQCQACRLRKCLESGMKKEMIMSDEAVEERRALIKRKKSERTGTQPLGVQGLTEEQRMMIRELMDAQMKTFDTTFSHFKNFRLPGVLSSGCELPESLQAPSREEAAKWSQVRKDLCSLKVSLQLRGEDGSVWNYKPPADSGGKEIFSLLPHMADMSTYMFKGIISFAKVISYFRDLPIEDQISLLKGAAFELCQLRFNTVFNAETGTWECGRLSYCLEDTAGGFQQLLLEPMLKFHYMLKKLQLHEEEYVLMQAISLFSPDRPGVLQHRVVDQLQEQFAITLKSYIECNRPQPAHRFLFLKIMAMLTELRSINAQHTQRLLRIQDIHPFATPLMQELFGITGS
# UniProt Q96RI1: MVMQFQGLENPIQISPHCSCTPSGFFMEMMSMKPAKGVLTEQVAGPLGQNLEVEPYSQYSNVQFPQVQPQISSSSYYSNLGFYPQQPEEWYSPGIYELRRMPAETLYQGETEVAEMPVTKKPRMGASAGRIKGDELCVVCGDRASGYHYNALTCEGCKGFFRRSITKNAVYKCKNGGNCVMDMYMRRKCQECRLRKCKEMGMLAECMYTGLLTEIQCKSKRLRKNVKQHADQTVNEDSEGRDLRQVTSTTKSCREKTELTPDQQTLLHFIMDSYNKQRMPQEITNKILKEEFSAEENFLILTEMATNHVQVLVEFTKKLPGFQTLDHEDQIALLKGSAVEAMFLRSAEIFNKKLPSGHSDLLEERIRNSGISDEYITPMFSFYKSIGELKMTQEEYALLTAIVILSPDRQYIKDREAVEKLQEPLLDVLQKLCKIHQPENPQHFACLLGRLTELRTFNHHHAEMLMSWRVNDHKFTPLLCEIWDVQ
# UniProt P04406: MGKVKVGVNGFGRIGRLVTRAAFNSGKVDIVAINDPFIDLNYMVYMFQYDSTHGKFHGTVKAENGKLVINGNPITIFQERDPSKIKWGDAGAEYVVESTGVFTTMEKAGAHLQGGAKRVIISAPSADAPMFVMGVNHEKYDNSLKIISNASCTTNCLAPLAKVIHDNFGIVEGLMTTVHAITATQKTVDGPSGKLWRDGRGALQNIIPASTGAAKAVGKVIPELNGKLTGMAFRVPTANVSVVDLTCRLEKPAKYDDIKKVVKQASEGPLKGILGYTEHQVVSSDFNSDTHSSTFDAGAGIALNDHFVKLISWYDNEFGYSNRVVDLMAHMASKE
# UniProt P33261, whole entry, looked up: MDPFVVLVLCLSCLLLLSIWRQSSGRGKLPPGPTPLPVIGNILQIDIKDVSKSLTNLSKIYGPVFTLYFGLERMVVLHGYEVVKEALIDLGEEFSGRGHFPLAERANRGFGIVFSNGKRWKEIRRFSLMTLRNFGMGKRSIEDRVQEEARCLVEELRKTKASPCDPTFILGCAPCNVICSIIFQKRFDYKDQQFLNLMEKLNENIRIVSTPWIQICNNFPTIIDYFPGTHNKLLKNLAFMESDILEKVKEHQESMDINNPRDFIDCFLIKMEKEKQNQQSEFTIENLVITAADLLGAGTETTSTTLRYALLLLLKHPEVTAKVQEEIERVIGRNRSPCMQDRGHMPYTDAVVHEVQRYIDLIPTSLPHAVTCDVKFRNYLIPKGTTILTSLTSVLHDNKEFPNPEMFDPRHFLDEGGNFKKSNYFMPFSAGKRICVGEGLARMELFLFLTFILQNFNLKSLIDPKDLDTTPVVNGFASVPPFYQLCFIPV
# UniProt P11712, whole entry, looked up: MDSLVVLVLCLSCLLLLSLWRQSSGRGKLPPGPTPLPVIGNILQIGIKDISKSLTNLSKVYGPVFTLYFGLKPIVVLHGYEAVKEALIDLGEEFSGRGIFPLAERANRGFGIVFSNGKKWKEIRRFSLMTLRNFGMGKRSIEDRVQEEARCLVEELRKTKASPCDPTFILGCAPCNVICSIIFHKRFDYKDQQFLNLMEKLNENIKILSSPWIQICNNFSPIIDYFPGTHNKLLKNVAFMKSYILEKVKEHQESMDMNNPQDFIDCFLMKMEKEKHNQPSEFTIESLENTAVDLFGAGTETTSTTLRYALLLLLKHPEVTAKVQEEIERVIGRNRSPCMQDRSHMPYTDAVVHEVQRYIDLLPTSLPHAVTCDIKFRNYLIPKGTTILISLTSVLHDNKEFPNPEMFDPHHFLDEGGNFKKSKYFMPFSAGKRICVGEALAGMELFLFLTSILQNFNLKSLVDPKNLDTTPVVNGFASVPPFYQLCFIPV
# UniProt P49884, whole entry, looked up: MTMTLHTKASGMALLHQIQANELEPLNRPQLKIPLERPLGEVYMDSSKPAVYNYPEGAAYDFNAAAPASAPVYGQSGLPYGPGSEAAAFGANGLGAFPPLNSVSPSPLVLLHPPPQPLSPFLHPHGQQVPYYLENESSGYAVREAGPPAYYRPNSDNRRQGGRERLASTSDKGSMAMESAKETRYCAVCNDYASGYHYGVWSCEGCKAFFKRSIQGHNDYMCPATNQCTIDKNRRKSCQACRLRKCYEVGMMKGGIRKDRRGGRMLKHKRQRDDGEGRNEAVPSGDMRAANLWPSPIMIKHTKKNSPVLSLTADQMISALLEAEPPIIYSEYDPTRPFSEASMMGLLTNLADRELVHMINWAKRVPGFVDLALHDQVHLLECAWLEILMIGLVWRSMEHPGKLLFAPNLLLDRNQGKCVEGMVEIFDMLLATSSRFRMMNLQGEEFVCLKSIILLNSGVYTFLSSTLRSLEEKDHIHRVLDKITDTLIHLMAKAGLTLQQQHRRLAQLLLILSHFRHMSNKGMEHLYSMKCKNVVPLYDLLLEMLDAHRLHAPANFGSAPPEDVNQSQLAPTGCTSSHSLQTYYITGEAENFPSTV
# UniProt P62508: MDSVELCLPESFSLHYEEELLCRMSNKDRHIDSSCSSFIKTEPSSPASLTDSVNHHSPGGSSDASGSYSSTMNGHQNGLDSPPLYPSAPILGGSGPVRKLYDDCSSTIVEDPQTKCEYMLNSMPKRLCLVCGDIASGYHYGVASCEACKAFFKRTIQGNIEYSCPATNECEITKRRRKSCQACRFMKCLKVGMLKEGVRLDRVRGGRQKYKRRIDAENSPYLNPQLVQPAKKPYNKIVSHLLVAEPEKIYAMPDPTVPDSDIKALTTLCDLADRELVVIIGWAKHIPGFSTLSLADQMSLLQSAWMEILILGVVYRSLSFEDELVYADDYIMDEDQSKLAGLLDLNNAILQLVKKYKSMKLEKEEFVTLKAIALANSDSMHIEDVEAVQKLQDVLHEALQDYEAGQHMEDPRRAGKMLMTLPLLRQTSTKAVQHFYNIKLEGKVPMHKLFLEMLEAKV
# UniProt P19785, whole entry, looked up: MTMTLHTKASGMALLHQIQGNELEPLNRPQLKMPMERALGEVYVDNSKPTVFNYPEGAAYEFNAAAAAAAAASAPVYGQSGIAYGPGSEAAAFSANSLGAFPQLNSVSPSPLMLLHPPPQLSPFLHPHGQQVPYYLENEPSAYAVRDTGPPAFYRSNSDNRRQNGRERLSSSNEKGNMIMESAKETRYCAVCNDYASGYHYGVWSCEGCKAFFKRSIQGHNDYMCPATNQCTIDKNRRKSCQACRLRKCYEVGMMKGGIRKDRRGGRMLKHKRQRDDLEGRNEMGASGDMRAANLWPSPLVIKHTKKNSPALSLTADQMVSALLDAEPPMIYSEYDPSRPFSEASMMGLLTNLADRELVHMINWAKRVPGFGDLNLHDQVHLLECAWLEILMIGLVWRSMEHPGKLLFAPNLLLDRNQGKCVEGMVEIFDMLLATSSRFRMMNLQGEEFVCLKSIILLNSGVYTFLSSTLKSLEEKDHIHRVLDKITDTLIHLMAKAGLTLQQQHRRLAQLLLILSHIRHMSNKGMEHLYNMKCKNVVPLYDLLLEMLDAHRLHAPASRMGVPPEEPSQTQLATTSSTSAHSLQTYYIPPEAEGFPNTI
# This list was built around the results that the source calls inconclusive (neither active nor inactive); the mix of calls is not that of the screen. For some assays here: Where the call is inconclusive, the potency comes from a doubtful curve fit. Calls of active or inactive are those of the source. The calls were made as follows: active = hit-call score of the fitted dose curve at least 0.9, where 1 is the maximum; inconclusive = response in the unintended direction; inactive = score below 0.9.
# Tests used:
# [1] = biological target: Nuclear receptor subfamily 1 group I member 2 (Homo sapiens) (UniProt O75469); experiment: NVS_NR_hPXR: NovaScreen (NVS) Nuclear Receptor Binding Assay for human Pregnane X Receptor (PXR) (AID 2283365);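 also: a drop in FRET signal versus DMSO baseline means the compound binds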
# Method in brief: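 Cell-free TR-FRET binding assay with extracted human PXR protein, read 2 h after dosing. Primary screen run in duplicate at 25 uM, actives followed in concentration series; loss of signal fitted against DMSO baseline.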
# [2] = biological target: Bile acid receptor (Homo sapiens) (UniProt Q96RI1); experiment: OT_FXR_FXRSRC1_0480: Odyssey Thera (OT) 8-hour HEK293T Protein-Complementation Assay for Farnesoid X receptor/SRC-1 Co-activator (AID 2283383)
# Method in brief: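 Co-activator recruitment to FXR was measured in living HEK293T cells, where interaction of the two fused partners restored an active fluorescent reporter. Signal gain after 8 h treatment was referenced to DMSO.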
# [3] = biological target: Bile acid receptor (Homo sapiens) (UniProt Q96RI1); experiment: OT_FXR_FXRSRC1_1440: Odyssey Thera (OT) 24-hour HEK293T Protein-Complementation Assay for Farnesoid X receptor/SRC-1 Co-activator (AID 2283384)
# Method in brief: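 Cell-based binding reporter: interaction of FXR with SRC-1 brings reporter fragments together, giving a fluorescence signal read 24 h after dosing of HEK293T cells.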
# [4] = Tanguay_ZF_120hpf_CIRC_legacy: (Legacy) Oregon State University Tanguay Lab 120 Hour Post-fertilization zebrafish Assay for Circulatory Malformation (AID 2283651)
# Method in brief: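 Using wild-type Tropical 5D zebrafish, we exposed dechorionated embryos from 6 to 120 hpf in embryo medium with 0.64% DMSO. Circulatory defects were scored as present or absent; 5uM trimethyltin chloride served as positive control.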
# [5] = read-out: organic anion transporter (SLCO1B1), SLCO1B1 (gene 10599); experiment: CLD_SLCO1B1_6hr: CellzDirect (CLD) Gene Expression Assay for organic anion transporter (SLCO1B1) at 6 hours (AID 2283668);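 also: active means mRNA induction above DMSO baseline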
# Method in brief: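 Primary human hepatocytes dosed daily with test chemicals (multiple concentrations) in 0.2% DMSO vehicle; harvested at 6 h. SLCO1B1 mRNA quantified by qNPA chemiluminescence, fitted as gain-of-signal versus DMSO; cytotoxicity from phase-contrast morphology flagged alongside.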
# [6] = read-out: HMG-CoA synthase (HMGCS2), HMGCS2 (gene 3158); experiment: CLD_HMGCS2_6hr: CellzDirect (CLD) Gene Expression Assay for HMG-CoA synthase (HMGCS2) at 6 hours (AID 2283682);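 also: actives raise HMGCS2 transcript above the 0.2% DMSO vehicle baseline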
# Method in brief: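 Primary human hepatocytes dosed daily with fresh chemical, 0.2% DMSO vehicle; HMGCS2 mRNA measured at 6 h by qNPA chemiluminescence. Gain of signal fitted against DMSO; cytotoxicity flagged from phase-contrast morphology.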
# [7] = read-out: HMG-CoA synthase (HMGCS2), HMGCS2 (gene 3158); experiment: CLD_HMGCS2_24hr: CellzDirect (CLD) Gene Expression Assay for HMG-CoA synthase (HMGCS2) at 24 hours (AID 2283691)
# Method in brief: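 Primary human hepatocytes from two donor preparations, dosed daily with fresh solutions; vehicle 0.2% DMSO, 24 h harvest. HMGCS2 mRNA quantified by qNPA with S1 nuclease digestion and chemiluminescence; gain fitted versus DMSO, cytotoxicity annotated by morphology.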
# [8] = read-out: Glyceraldehyde-3-phosphate dehydrogenase (Homo sapiens) (UniProt P04406); experiment: CLD_GAPDH_24hr: CellzDirect (CLD) Gene Expression Assay for Baseline Control (Glyceraldehyde 3-phosphate dehydrogenase) at 24 hours (AID 2283692)
# Method in brief: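 Primary human hepatocytes (two donor preparations) dosed daily for two days, 0.2% DMSO vehicle; GAPDH mRNA measured at 24 h by qNPA chemiluminescence as a background control, gain-of-signal fitted against DMSO.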
# [9] = read-out: Cytochrome P450 2C19 (Homo sapiens) (UniProt P33261); experiment: CLD_CYP2C19_48hr: CellzDirect (CLD) Gene Expression Assay for xenobiotic metabolism (CYP2C19) at 48 hours (AID 2283700);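 as to outcome: fitted upward so actives raise CYP2C19 mRNA above the 0.2% DMSO vehicle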
# Method in brief: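 Primary human hepatocytes (two donor preparations) dosed daily for two days, harvested at 48 h; CYP2C19 mRNA induction measured by qNPA chemiluminescence. Gain-of-signal fitted relative to 0.2% DMSO vehicle as baseline.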
# [10] = read-out: Glyceraldehyde-3-phosphate dehydrogenase (Homo sapiens) (UniProt P04406); experiment: CLD_GAPDH_48hr: CellzDirect (CLD) Gene Expression Assay for Baseline Control (Glyceraldehyde 3-phosphate dehydrogenase) at 48 hours (AID 2283706);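 as to outcome: active means higher GAPDH mRNA than DMSO vehicle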
# Method in brief: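 Primary human hepatocytes dosed daily for two days with fresh chemical at multiple concentrations, 0.2% DMSO vehicle; GAPDH mRNA measured at 48 h by quantitative nuclease protection assay with chemiluminescence, fitted upward relative to DMSO as background control.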
# [11] = read-out: organic anion transporter (SLCO1B1), SLCO1B1 (gene 10599); experiment: CLD_SLCO1B1_48hr: CellzDirect (CLD) Gene Expression Assay for organic anion transporter (SLCO1B1) at 48 hours (AID 2283707)
# Method in brief: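 Primary human hepatocytes from two donor preparations dosed daily for two days with multiple concentrations, 0.2% DMSO vehicle. SLCO1B1 mRNA at 48 h by quantitative nuclease protection assay, chemiluminescence; gain-of-signal fitted versus DMSO.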
# [12] = read-out: HMG-CoA synthase (HMGCS2), HMGCS2 (gene 3158); experiment: CLD_HMGCS2_48hr: CellzDirect (CLD) Gene Expression Assay for HMG-CoA synthase (HMGCS2) at 48 hours (AID 2283711)
# Method in brief: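 Primary human hepatocytes from two donors dosed daily for two days, 0.2% DMSO vehicle. HMGCS2 mRNA measured 48 h after dosing by quantitative nuclease protection assay with chemiluminescent read-out; induction fitted relative to DMSO, cytotoxicity flagged by microscopy.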
# [13] = CLD_ACTIN_24hr: CellzDirect (CLD) Gene Expression Assay for Baseline Control (Actin) at 24 hours (AID 2283670)
# Method in brief: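 Primary human hepatocytes dosed over multiple concentrations with 0.2% DMSO vehicle; actin mRNA measured at 24 h by qNPA chemiluminescence. Background control endpoint, fitted as gain of signal versus DMSO.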
# [14] = read-out: Cytochrome P450 2C9 (Homo sapiens) (UniProt P11712); experiment: CLD_CYP2C9_24hr: CellzDirect (CLD) Gene Expression Assay for xenobiotic metabolism (CYP2C9) at 24 hours (AID 2283688);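 as to AC50: potency for induction meaning a rise in CYP2C9 mRNA over DMSO vehicle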
# Method in brief: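 Primary human hepatocytes from two donor preparations, dosed daily for two days at multiple concentrations; vehicle 0.2% DMSO. CYP2C9 mRNA induction at 24 h measured by qNPA chemiluminescence relative to DMSO; cytotoxicity annotated from morphology.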
# [15] = Tanguay_ZF_120hpf_NC_legacy: (Legacy) Oregon State University Tanguay Lab 120 Hour Post-fertilization zebrafish Assay for Notochord and Tail Malformation (AID 2283656)
# Method in brief: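 Dechorionated 5D zebrafish, 1/well from 6 hpf; static exposure to 120 hpf, 28C, sealed, dark; final DMSO 0.64% v/v. NC scored binary (present/absent); dead embryos not scored. Fit vs DMSO baseline, gain direction.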
# [16] = ACEA_AR_antagonist_AUC_viability: ACEA Biosciences xCELLigence Real-Time Cell Analysis on Androgen Receptor Antagonism for Viability (AID 2283776);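 also: 22Rv1 human prostate cancer cells growing on impedance electrode plates; area under impedance growth curve at 80 h after dosing as viability; hits lower the growth signal relative to DMSO meaning cytotoxicity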
# Method in brief: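 Real-time electrical impedance tracks 22Rv1 proliferation after continuous compound exposure (top 100 uM final, 1:4 steps, 8 concentrations). The 80 h area-under-curve serves as the cytotoxicity readout relative to DMSO.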
# [17] = biological target: bovine Estrogen Receptor (ER), ESR1 (gene 407238) (UniProt P49884); experiment: NVS_NR_bER: NovaScreen (NVS) Nuclear Receptor Binding Assay for bovine Estrogen Receptor (ER) (AID 2283345);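 also: actives lower the bound radioligand count which means they displace the ER ligand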
# Method in brief: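 Cell-free radioligand binding with receptor from bovine uterine membranes, read by scintillation counting 18 h after dosing. Loss of specific binding was scored against DMSO; primary screen at 25 uM in duplicate, actives then run as concentration series.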
# [18] = CCTE_Deisenroth_AIME_384WELL_CTox_Active: Cytotoxicity Assessment (CTOX) in CCTE's 384-well Estrogen Receptor Transactivation Assay with AIME metabolic competence (metabolism positive), Deisenroth Lab (AID 2284037);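 also: chemicals first conditioned 2 h by alginate-bound induced rat liver S9 before cells; activity means signal loss indicating cell death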
# Method in brief: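 VM7Luc4E2 breast cells received medium pre-incubated 2 h with chemical over alginate microspheres holding induced male Sprague Dawley rat liver S9; viability read 24 h later by protease-substrate fluorescence. Loss of signal, bidirectional fit, 0.002–200 uM.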
# [19] = biological target: Estrogen-related receptor gamma (Homo sapiens) (UniProt P62508); experiment: ATG_ERRg_TRANS: Attagene TRANS-FACTORIAL HepG2 Assay for human Estrogen-Related Receptor gamma (ERRg) (AID 2282977); settings: HepG2 Attagene TRANS reporter, ERRg transactivation;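 also: hits increase reporter signal over DMSO so potencies reflect activators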
# Method in brief: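 Transient HepG2 transfectants, 24 h compound exposure, GAL4-UAS reporter mRNA by RT-PCR/6-FAM labelling/capillary electrophoresis; positive direction vs DMSO.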
# [20] = biological target: mouse Estrogen Receptor alpha (Era), Esr1 (gene 13982) (UniProt P19785); experiment: NVS_NR_mERa: NovaScreen (NVS) Nuclear Receptor Binding Assay for mouse Estrogen Receptor alpha (Era) (AID 2283378);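 also: hit means loss of bound radioligand signal relative to DMSO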
# Method in brief: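 Cell-free radioligand competitive displacement binding, read by filter-based scintillation counting 18 h after dosing. Primary screen run in duplicate at 25 uM, actives retested in concentration series; loss of signal versus DMSO.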
structure (smiles),measurement,setting,value
CC(C)C1(C)N=C(c2ncccc2C(=O)O)NC1=O (configuration not stated),outcome,[1],inactive
same,AC50,[2],inconclusive: 0.0714 µM
same,AC50,[3],inconclusive: 50 µM
same,AC50,[4],inconclusive: 56.3 µM
same,outcome,[5],inactive
same,AC50,[6],inconclusive: 20 µM
same,AC50,[7],inconclusive: 20 µM
same,outcome,[8],inactive
same,outcome,[9],inactive
same,outcome,[10],inactive
same,outcome,[11],inactive
same,AC50,[12],inconclusive: 0.535 nM
CCNc1nc(Cl)nc(NC(C)(C)C#N)n1,AC50,[5],inconclusive: 20 µM
same,AC50,[13],inconclusive: 20 µM
same,AC50,[14],inconclusive: 0.00892 µM
same,AC50,[7],inconclusive: 20 µM
same,AC50,[8],inconclusive: 20 µM
same,AC50,[9],inconclusive: 20 µM
same,AC50,[10],inconclusive: 0.159 µM
same,AC50,[11],inconclusive: 3.97 µM
same,outcome,[12],inactive
COc1cc(OC)nc(NC(=O)NS(=O)(=O)c2ncccc2C(=O)N(C)C)n1,outcome,[1],inactive
CC(C)(C)OOC(=O)c1ccccc1,outcome,[1],inactive
same,AC50,[15],inconclusive: 146 µM
same,outcome,[16],inactive
Nc1cnn(-c2ccccc2)c(=O)c1Cl,AC50,[17],inconclusive: 44.7 µM
same,AC50,[15],inconclusive: 37.7 µM
same,AC50,[5],inconclusive: 0.0254 µM
same,AC50,[13],inconclusive: 20 µM
same,outcome,[14],inactive
same,AC50,[7],inconclusive: 1.96 µM
same,AC50,[12],inconclusive: 4.03 nM
same,AC50,[18],inconclusive: 0.2 nM
CCCCCCC1CCOC1=O (configuration not stated),outcome,[19],inactive
Nc1ccc(Cc2ccc(N)cc2)cc1,AC50,[4],inconclusive: 45.8 µM
same,AC50,[18],inconclusive: 1.59 nM
Cc1ccc(N)cc1Cl,AC50,[1],inconclusive: 17.2 nM
ClC(Cl)(Cl)c1ccccc1,outcome,[17],inactive
same,outcome,[20],inactive
same,AC50,[15],inconclusive: 89.6 µM
O=C(NC(=O)c1c(F)cccc1F)Nc1ccc(Oc2ccc(C(F)(F)F)cc2Cl)cc1F,outcome,[18],inactive
C=CC(Cl)CCl (configuration not stated),AC50,[1],active: 5060 nM
same,AC50,[2],inconclusive: 51 µM
same,AC50,[3],inconclusive: 16.2 µM
same,AC50,[18],inconclusive: 0.214 nM
CN(N=O)C(N)=O,AC50,[3],inconclusive: 13.9 µM
same,AC50,[16],inconclusive: 16.6 µM
CS(=O)(=O)NC(=O)c1cc(Oc2ccc(C(F)(F)F)cc2Cl)ccc1[N+](=O)[O-],AC50,[3],inconclusive: 50 µM
same,AC50,[18],inconclusive: 0.2 nM
COC(=O)c1ccccc1N,AC50,[19],inconclusive: 100 µM
same,AC50,[16],inconclusive: 0.00155 µM
same,AC50,[18],inconclusive: 0.2 nM
CC(C)[C@H](C(=O)O[C@H](C#N)c1cccc(Oc2ccccc2)c1)c1ccc(Cl)cc1,AC50,[5],inconclusive: 20 µM
same,AC50,[13],inconclusive: 20 µM
same,AC50,[6],inconclusive: 20 µM
same,AC50,[14],inconclusive: 20 µM
same,AC50,[7],inconclusive: 20 µM
same,AC50,[8],inconclusive: 20 µM
same,AC50,[9],inconclusive: 20 µM
same,AC50,[10],inconclusive: 20 µM
same,AC50,[11],inconclusive: 20 µM
same,AC50,[12],inconclusive: 5490 nM

# Shown tab-delimited: entries from further up.
structure (smiles)	measurement	setting	value
CCNc1nc(Cl)nc(NC(C)(C)C#N)n1	AC50	[5]	inconclusive: 20 µM
same	AC50	[13]	inconclusive: 20 µM
same	AC50	[14]	inconclusive: 0.00892 µM
